Experimental data as given in the supplement of paper PMC10849652.
The list shows a part of the results.

Chains of the proteins cited; added tags and fusions are not shown. Lines headed by an entry give the natural chain unless they say otherwise; changes in a name come on top.
UniProt Q6IPR3: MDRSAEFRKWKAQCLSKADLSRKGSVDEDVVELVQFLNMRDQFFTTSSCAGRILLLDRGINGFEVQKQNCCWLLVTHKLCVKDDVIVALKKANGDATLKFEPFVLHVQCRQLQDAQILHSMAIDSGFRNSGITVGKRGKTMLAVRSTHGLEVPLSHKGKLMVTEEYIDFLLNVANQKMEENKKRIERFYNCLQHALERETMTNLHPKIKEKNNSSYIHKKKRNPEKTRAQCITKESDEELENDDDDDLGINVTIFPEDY
UniProt Q16222: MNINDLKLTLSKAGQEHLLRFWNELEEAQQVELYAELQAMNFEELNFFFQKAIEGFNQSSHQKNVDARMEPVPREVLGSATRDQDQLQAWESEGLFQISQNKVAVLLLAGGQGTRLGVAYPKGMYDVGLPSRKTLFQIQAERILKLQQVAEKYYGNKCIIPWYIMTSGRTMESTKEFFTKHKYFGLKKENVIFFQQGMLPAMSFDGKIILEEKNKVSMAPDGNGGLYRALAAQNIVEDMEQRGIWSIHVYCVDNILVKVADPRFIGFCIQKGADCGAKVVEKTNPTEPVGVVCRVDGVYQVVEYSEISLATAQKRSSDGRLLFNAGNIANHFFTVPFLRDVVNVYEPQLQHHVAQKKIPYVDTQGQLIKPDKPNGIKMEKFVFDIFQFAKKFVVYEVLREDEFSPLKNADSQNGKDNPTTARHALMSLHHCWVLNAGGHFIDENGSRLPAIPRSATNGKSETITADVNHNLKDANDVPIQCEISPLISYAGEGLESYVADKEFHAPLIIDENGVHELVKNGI
UniProt P0CG48, whole entry, looked up: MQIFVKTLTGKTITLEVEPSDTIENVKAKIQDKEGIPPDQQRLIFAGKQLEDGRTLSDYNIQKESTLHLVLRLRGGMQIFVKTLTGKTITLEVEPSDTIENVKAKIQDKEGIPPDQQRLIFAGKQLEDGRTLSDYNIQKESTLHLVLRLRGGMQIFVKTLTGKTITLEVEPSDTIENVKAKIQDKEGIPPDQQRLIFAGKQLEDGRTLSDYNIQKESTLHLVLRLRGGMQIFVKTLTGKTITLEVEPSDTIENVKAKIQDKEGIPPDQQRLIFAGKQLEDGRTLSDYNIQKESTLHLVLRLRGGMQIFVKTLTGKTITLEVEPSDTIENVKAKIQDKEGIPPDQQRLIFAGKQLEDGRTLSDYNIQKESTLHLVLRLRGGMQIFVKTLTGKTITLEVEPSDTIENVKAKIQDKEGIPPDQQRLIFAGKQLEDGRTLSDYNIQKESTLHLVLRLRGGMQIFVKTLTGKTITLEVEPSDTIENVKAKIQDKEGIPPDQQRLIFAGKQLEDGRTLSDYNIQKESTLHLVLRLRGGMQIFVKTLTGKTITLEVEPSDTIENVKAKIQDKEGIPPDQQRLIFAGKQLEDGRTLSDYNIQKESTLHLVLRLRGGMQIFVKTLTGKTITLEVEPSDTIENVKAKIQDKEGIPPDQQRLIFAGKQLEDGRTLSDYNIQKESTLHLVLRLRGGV
UniProt Q8NG11: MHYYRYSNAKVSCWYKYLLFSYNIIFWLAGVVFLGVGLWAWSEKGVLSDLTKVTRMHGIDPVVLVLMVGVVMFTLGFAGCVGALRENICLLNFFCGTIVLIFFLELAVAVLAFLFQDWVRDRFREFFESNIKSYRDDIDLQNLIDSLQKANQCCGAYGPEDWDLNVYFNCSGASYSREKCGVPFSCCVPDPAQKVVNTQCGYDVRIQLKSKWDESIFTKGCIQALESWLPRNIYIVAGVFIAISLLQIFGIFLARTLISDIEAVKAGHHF
UniProt Q9GZX9: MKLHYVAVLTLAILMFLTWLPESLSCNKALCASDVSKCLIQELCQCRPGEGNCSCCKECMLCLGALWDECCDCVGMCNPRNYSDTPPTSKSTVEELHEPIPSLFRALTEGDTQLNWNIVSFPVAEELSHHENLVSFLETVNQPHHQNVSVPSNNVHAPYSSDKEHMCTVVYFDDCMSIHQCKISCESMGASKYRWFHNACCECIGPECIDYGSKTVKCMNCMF
UniProt P04350, whole entry, looked up: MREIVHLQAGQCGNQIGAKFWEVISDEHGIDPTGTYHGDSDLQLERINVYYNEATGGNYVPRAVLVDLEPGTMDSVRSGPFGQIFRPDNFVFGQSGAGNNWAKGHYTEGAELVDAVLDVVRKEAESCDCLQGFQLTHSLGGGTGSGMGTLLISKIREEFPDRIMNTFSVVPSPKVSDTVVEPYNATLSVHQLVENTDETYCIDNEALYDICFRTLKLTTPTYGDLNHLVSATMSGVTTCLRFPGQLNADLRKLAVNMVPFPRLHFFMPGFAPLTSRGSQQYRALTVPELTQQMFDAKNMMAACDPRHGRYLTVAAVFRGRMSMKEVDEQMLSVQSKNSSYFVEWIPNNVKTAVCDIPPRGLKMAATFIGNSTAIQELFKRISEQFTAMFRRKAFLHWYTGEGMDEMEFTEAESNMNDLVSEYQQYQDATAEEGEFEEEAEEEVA
UniProt Q86TV6: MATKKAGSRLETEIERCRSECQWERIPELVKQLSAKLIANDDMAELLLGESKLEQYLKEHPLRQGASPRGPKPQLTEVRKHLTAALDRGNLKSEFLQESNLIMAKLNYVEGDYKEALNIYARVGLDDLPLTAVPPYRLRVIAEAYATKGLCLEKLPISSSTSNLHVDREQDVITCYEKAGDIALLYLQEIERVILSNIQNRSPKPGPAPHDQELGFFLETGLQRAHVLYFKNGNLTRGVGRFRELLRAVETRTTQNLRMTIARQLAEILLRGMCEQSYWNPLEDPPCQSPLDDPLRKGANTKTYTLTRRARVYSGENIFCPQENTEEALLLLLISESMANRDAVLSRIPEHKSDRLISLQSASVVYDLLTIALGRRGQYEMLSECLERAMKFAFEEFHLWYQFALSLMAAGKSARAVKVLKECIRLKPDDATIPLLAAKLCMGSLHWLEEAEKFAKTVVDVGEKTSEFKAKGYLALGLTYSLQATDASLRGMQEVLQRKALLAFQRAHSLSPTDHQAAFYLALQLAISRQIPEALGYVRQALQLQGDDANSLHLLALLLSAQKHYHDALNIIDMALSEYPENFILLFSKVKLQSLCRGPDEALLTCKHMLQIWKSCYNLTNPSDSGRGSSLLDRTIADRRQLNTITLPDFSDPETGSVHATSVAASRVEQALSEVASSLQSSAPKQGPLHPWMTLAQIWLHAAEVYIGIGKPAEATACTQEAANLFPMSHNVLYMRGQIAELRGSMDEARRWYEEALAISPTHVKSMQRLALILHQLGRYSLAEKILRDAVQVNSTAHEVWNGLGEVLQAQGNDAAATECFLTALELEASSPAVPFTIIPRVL
UniProt P83876: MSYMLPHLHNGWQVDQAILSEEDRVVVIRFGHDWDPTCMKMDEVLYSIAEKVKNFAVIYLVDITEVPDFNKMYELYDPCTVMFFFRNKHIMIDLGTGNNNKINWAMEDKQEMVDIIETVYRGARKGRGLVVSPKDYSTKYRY
UniProt P62253: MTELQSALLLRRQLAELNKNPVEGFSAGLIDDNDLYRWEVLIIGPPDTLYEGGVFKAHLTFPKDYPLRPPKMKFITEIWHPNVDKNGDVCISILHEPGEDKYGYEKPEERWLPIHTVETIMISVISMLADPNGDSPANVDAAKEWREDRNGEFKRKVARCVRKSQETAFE
UniProt Q2NL82: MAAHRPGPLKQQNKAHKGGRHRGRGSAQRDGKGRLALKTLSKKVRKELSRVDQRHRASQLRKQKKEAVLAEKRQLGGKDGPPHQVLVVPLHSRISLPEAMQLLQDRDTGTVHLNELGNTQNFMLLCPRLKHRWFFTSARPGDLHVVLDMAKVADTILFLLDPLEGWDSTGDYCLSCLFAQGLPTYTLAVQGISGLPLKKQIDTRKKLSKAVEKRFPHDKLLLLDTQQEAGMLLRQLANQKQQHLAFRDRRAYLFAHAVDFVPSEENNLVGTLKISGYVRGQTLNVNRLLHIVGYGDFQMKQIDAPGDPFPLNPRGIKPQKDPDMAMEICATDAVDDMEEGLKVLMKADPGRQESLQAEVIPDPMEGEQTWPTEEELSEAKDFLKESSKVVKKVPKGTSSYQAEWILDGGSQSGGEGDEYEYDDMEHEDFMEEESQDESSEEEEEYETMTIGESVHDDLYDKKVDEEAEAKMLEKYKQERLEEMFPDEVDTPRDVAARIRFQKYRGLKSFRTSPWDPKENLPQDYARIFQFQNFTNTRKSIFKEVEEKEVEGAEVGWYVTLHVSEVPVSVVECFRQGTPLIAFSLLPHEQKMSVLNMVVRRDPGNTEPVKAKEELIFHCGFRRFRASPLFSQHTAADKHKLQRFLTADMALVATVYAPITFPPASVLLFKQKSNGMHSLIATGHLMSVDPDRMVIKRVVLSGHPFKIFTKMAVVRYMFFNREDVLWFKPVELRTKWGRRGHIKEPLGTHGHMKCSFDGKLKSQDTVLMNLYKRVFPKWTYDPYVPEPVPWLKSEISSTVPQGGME
UniProt Q9BSJ2, whole entry, looked up: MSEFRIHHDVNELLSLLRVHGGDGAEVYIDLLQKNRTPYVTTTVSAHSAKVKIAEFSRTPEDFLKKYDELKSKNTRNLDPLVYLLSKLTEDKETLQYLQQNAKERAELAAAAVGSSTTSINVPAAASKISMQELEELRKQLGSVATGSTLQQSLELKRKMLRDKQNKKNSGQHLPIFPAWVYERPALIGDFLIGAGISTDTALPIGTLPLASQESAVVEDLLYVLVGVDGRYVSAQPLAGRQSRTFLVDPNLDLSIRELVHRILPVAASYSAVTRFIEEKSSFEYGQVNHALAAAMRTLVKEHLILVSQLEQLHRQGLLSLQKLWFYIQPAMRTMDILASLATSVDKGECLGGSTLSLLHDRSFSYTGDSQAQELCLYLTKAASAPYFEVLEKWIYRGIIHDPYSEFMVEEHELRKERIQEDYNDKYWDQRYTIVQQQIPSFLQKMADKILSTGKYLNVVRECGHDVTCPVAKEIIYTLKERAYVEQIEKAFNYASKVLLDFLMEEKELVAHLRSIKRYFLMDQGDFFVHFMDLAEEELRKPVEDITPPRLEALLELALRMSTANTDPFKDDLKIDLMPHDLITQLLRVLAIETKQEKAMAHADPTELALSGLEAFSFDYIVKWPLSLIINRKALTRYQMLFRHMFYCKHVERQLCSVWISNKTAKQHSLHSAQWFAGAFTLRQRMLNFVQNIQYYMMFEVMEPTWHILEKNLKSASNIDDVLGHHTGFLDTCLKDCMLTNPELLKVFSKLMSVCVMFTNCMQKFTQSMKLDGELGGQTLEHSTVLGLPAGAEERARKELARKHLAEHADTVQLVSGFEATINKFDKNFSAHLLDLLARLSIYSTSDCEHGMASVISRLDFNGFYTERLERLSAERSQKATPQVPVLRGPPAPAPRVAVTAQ
UniProt O95801: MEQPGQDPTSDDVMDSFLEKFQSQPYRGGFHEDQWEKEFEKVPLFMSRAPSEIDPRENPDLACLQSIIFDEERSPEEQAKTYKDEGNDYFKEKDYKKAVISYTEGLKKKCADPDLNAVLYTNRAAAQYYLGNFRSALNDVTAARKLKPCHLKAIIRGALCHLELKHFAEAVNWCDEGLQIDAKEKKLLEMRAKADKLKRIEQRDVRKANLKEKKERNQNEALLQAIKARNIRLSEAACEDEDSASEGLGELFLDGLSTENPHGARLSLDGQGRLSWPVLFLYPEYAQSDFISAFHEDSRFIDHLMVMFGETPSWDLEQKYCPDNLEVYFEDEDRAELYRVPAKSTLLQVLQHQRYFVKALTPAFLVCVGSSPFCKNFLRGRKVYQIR
UniProt Q9UJT0: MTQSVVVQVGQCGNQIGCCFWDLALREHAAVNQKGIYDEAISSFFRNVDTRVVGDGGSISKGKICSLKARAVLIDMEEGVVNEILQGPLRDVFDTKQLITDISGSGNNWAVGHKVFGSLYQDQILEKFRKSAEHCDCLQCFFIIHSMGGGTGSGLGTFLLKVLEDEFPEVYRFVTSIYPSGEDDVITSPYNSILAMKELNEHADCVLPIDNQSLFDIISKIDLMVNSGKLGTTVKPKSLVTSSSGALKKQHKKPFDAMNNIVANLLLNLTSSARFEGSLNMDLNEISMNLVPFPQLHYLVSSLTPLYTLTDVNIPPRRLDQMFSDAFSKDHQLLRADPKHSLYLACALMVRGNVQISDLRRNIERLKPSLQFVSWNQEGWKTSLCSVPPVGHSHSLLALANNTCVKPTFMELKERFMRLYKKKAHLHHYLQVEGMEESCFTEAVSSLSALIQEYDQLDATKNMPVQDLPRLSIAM
UniProt Q9Y5U2: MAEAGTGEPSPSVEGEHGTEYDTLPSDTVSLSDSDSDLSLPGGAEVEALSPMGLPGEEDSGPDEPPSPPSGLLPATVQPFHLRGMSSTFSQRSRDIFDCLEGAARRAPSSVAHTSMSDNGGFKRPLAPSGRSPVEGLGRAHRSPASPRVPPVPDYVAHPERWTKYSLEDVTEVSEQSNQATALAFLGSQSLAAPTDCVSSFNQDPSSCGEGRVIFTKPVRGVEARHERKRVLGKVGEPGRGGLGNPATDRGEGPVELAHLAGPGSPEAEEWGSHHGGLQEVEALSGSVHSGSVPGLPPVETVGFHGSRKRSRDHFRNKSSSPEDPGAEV
UniProt Q9BRA2: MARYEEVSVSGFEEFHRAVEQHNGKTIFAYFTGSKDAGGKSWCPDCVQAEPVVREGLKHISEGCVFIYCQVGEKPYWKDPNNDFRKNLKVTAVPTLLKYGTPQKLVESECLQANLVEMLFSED

What follows are targets tested with CC1=C2C(=CC=C1)N=C(N(C2=O)C3=CC=CC=C3C)CN4C=NC5=C(N=CN=C54)N (assay: log2 fold change, soluble protein after heating vs DMSO (PISA); higher = thermal stabilisation; K562 cells, 10 uM, 30 min; active = over 0.2 and 3.5 SD of the protein, either way, in both replicates (recomputed)).
Procedure, shortened: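 For each measurement, 10 μM compound was applied for 30 min to K562 cells at 2×10^6 cells/mL. Aliquots were heated for 3 min across 48°C-58°C, pooled, and extracted in PBS with 0.5% NP-40 at 4°C; the supernatant after 21,000xg for 90 min was soluble protein. This was quantified by TMTpro 16plex LC-MS/MS with channel sums equalised, and thermal stability was reported relative to control samples from duplicates, on a log2 fold-change scale.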

**Q.** For TYW3 (UniProt Q6IPR3), which log2 fold change is on record?
**A.** inactive: -0.091

**Q.** UBA2 (UniProt Q9UBT2) was tested. Which log2 fold change did it give?
**A.** inactive: 0.079

**Q.** Which log2 fold change does the source give for TXLNG (UniProt Q9NUQ3) here?
**A.** inactive: 0.049

**Q.** Which log2 fold change does the source give for TSN (UniProt Q15631) here?
**A.** inactive: -0.024

**Q.** Which log2 fold change does the source give for TUBB1 (UniProt Q9H4B7) here?
**A.** inactive: -0.007

**Q.** Which log2 fold change does the source give for TTN isoform 12 (UniProt Q8WZ42) here?
**A.** inactive: 0.255

**Q.** How did the log2 fold change turn out when UBE2D3 isoform 3 (UniProt P61077) was run?
**A.** inactive: 0.057

**Q.** For UBE2O (UniProt Q9C0C9), which log2 fold change is on record?
**A.** inactive: 0.069

**Q.** UAP1 (UniProt Q16222) was tested. Which log2 fold change did it give?
**A.** inactive: 0.047

**Q.** UBC (UniProt P0CG48) was tested. Which log2 fold change did it give?
**A.** inactive: 0.058

**Q.** With TSEN54 (UniProt Q7Z6J9) as the target, how does the log2 fold change read?
**A.** inactive: -0.027

**Q.** With TSPAN14 (UniProt Q8NG11) as the target, how does the log2 fold change read?
**A.** inactive: 0.045

**Q.** How did the log2 fold change turn out when TWSG1 (UniProt Q9GZX9) was run?
**A.** inactive: 0.003

**Q.** TUBB4A (UniProt P04350) was tested. Which log2 fold change did it give?
**A.** inactive: -0.09

**Q.** Which log2 fold change does the source give for TUBA1C (UniProt Q9BQE3) here?
**A.** inactive: -0.015

**Q.** For TUBB8B (UniProt A6NNZ2), which log2 fold change is on record?
**A.** inactive: 0.088

**Q.** Which log2 fold change does the source give for UBE2G2 (UniProt P60604) here?
**A.** inactive: -0.056

**Q.** How did the log2 fold change turn out when TTC7B isoform 2 (UniProt Q86TV6) was run?
**A.** inactive: 0.099

**Q.** With UBE2B (UniProt P63146) as the target, how does the log2 fold change read?
**A.** inactive: 0.181

**Q.** For UBA5 (UniProt Q9GZZ9), which log2 fold change is on record?
**A.** inactive: 0.03

**Q.** Which log2 fold change does the source give for UBE2N (UniProt P61088) here?
**A.** inactive: 0.116

**Q.** TXNL4A (UniProt P83876) was tested. Which log2 fold change did it give?
**A.** inactive: 0.025

**Q.** UBE2G1 (UniProt P62253) was tested. Which log2 fold change did it give?
**A.** inactive: 0.045

**Q.** Which log2 fold change does the source give for UBE2E3 (UniProt Q969T4) here?
**A.** inactive: 0.115

**Q.** For UBAC2 (UniProt Q8NBM4), which log2 fold change is on record?
**A.** inactive: 0.043

**Q.** With UBE2L3 isoform 3 (UniProt P68036) as the target, how does the log2 fold change read?
**A.** inactive: 0.011

**Q.** For TSR1 (UniProt Q2NL82), which log2 fold change is on record?
**A.** inactive: -0.019

**Q.** How did the log2 fold change turn out when UBAC1 (UniProt Q9BSL1) was run?
**A.** inactive: 0.05

**Q.** TUBGCP2 isoform 4 (UniProt Q9BSJ2) was tested. Which log2 fold change did it give?
**A.** inactive: -0.156

**Q.** For TUBB6 (UniProt K7ES63), which log2 fold change is on record?
**A.** inactive: 0.064

**Q.** How did the log2 fold change turn out when TTC4 (UniProt O95801) was run?
**A.** inactive: 0.099

**Q.** TUBB2A (UniProt Q13885) was tested. Which log2 fold change did it give?
**A.** inactive: 0.028

**Q.** How did the log2 fold change turn out when TUBE1 (UniProt Q9UJT0) was run?
**A.** inactive: 0.018

**Q.** How did the log2 fold change turn out when TUBG1 (UniProt P23258) was run?
**A.** inactive: 0.072

**Q.** TSSC4 (UniProt Q9Y5U2) was tested. Which log2 fold change did it give?
**A.** inactive: 0.015

**Q.** TXNDC17 (UniProt Q9BRA2) was tested. Which log2 fold change did it give?
**A.** inactive: 0.026

**Q.** With U2AF1 isoform 2 (UniProt Q01081) as the target, how does the log2 fold change read?
**A.** inactive: 0.11

**Q.** With TWF1 (UniProt Q12792) as the target, how does the log2 fold change read?
**A.** inactive: 0.057
